Reference: article PMC5449720, “Characterization of Bile Salt Hydrolase from Lactobacillus gasseri FR4 and Demonstration of Its Substrate Specificity and Inhibitory Mechanism Using Molecular Docking Analysis” (Frontiers in Microbiology, 2017)
Counter-ions that a name gives are not always drawn.

Test system: T1, LgBSH (bile salt hydrolase of Lactobacillus gasseri FR4)
T1 construct: gene bsh; 326-aa ORF (981 bp); tag kept; gene found via L. gasseri ATCC 33323 genome NC_008530.1; printed peptides LEISFGEH (20-27), LVDINFSKKLQLSPL (124-138)
Assay: ninhydrin assay of released amino acid
Format: biochemical
Details: 5000 µM; 5 mM inhibitor; conjugated bile salt substrate not named for this test; standard assay 10 mM DTT, pH 6.0, 37 °C

Row | Compound | Inhibition %^a
1 | C[C@H]1c2cccc(O)c2C(O)=C2C(=O)[C@]3(O)C(O)=C(C(N)=O)C(=O)[C@@H](N(C)C)[C@@H]3[C@@H](O)[C@@H]21 [Doxycycline hydrochloride] | 97.51%
2 | O=C1O[C@H]([C@@H](O)CO)C(O)=C1O [Ascorbic acid] | 32.96%
3 | CCC[C@@H]1C[C@@H](C(=O)N[C@@H]([C@H]2O[C@H](SC)[C@H](O)[C@@H](O)[C@H]2O)[C@@H](C)O)N(C)C1 [Lincomycin] | 18.58%
4 | CC1(C)S[C@@H]2[C@H](NC(=O)COc3ccccc3)C(=O)N2[C@H]1C(=O)O [Penicillin V] | 97.84%
5 | Cc1cc2nc3c(=O)[nH]c(=O)nc-3n(C[C@H](O)[C@H](O)[C@H](O)CO)c2cc1C [Riboflavin] | 98.31%
6 | CC1(C)S[C@@H]2[C@H](NC(=O)[C@H](N)c3ccccc3)C(=O)N2[C@H]1C(=O)O [Ampicillin] | 96.39%
7 | CC[C@H]1OC(=O)[C@H](C)[C@@H](O[C@H]2C[C@@](C)(OC)[C@@H](O)[C@H](C)O2)[C@H](C)[C@@H](O[C@@H]2O[C@H](C)C[C@H](N(C)C)[C@H]2O)[C@](C)(O)C[C@@H](C)C(=O)[C@H](C)[C@@H](O)[C@]1(C)O [Erythromycin] | 41.62%
8 | CN(C)[C@@H]1C(=O)C(C(N)=O)=C(O)[C@@]2(O)C(=O)C3=C(O)c4c(O)cccc4[C@@](C)(O)[C@H]3[C@H](O)[C@@H]12 [Oxytetracycline] | 95.97%
